Some of these results come from one statement about several compounds together.
Legend:
[1] = tested on: hepatic tumors induced by DENA; assay: Preventive effect on hepatic neoplasms induced by N-diethyl nitrosamine (DENA) in rats; assay type: in vivo, male Wistar rats; conditions: 25 mg/kg a day
Experimental: The efficacy of preventive effects of Products 1 and 2 in relation to hepatic neoplasms was shown in the experiment on male Wistar rats which were intraperitoneally administered with chemical carcinogen-N-diethyl nitrosamine (DENA) (Nitrosodiethylamin (N—N)). The nature of the invention is explained with the execution example.
To solve the task, 3 groups of male Wistar rats weighing 150-200 g were formed, 16 in each. Rats of the control group were administered intraperitoneally with DENA in dose 30 mg/kg/week. The dosage was administered in 2 doses: Monday and Thursday. The animals of test groups were similarly administered with DENA. Rats of test groups took drinking water in addition to Products 1 and 2 assuming that they took 25 mg/kg of body weight/day with water. The animals started taking the products 3 weeks prior administration of N-diethyl nitrosamine to develop protective background in animal body and subsequently for 2.5 months.
During the experiment, weight of rats was controlled. After autopsy of animals, liver was weighted, tumors were visually counted on its surface and photographed.

Lewis carcinoma = assay: Anti-neoplastic and anti-metastatic activity in mice with Lewis carcinoma implanted to the paw; assay type: in vivo, male mice F1 (CBA×C57B1/6); conditions: for Decrease of tumor volume by increase of dose: 25 mg/kg versus 5 mg/kg; for Decrease of tumor volume by starting one week prior tumor implantation: four weeks course versus dosing only after implantation
Experimental: The efficacy of anti-neoplastic (anti-proliferative) and anti-metastatic properties of products 1 and 2 was shown in the experiment on male mice F1 (CBA×CS7B1/6) with Lewis carcinoma implanted to the paw following intragastric administration in two doses: 5 mg/kg and 25 mg/kg for 3 weeks immediately after implantation and within 1 week prior tumor transplantation.
Test system. To examine anti-neoplastic (anti-proliferative) and anti-metastatic properties of products 1 and 2, 120 hybrid male mice of the first generation CBA×[…] were used: each group of 10-12 mice. Lewis carcinoma was implanted to a hind paw, in the amount ˜10^6 cells (˜0.2 cm^3) Doses and dosing schemes for products 1 and 2. Route of the product administration—per os provided addition of products 1 and 2 to drinking water which was given to animals. Products 1 and 2 were added to drinking water by two schemes: within 3 weeks immediately after implantation and within 4 weeks with the dosing started prior implantation.
Anti-neoplastic (anti-proliferative) and anti-metastatic activity of products 1 and 2 was assessed based on change of tumor volume and number of lung metastases. The number of metastases was assessed on day 21 after tumor implantation (day 28 after the administration of products 1 and 2 by the 1-st scheme). For that, lungs were withdrawn in animals decapitated under anesthesia and transferred to Bouin's fluid. Metastases were visually counted. The volume of neoplasm was assessed by ellipsoid equation (1). […]
[formula] where: d1, d2, d3—mutually perpendicular tumor sizes.

## O=C1CSC(=S)N1CCc1ccncc1 [Product 2]
[1]
  Decrease of the number of tumors in comparison with control group: 4.0-4.4 times
Lewis carcinoma; dosed only after tumor implantation
  Decrease of tumor volume by increase of dose: 19-21%
Lewis carcinoma; dosed prior and after tumor implantation
  Decrease of tumor volume by increase of dose: 23-24%
Lewis carcinoma; dose 5 mg/kg
  Decrease of tumor volume by starting one week prior tumor implantation: 13-14%
Lewis carcinoma; dose 25 mg/kg
  Decrease of tumor volume by starting one week prior tumor implantation: 15-16%

Reference: patent publication US9949961B2, “Agent for the prophylaxis and/or treatment of neoplastic diseases” (priority 2013, dated 2018)
